Publication PMC8425213
Results are given in words; binding and its absence hold for the method and conditions named. Binding seen in cells or lysates may run through a third protein. Some entries that bind do so weakly or less than the wild type.

Sequences of proteins named here, by UniProt entry; tags and fusion partners are left off.
UniProt P35222: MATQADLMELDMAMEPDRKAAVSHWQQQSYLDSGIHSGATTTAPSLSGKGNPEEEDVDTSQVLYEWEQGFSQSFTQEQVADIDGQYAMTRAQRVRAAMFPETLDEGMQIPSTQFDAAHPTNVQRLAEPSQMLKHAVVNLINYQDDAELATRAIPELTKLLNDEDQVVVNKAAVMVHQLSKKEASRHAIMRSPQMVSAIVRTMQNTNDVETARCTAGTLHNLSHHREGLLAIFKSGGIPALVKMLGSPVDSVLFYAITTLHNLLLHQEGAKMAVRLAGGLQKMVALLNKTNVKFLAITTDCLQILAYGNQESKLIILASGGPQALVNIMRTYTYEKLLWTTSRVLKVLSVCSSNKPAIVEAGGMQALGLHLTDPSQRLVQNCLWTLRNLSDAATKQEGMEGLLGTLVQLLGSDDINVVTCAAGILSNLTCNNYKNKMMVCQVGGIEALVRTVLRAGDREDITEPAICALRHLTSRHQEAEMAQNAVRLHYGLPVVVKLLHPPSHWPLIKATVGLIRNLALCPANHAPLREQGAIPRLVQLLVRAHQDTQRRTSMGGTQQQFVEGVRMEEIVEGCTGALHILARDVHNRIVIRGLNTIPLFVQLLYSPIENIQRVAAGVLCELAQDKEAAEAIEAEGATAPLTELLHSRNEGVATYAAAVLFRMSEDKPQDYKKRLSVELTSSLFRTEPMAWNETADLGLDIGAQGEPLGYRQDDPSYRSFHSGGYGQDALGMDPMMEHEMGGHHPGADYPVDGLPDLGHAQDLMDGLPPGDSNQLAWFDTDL
UniProt O15169: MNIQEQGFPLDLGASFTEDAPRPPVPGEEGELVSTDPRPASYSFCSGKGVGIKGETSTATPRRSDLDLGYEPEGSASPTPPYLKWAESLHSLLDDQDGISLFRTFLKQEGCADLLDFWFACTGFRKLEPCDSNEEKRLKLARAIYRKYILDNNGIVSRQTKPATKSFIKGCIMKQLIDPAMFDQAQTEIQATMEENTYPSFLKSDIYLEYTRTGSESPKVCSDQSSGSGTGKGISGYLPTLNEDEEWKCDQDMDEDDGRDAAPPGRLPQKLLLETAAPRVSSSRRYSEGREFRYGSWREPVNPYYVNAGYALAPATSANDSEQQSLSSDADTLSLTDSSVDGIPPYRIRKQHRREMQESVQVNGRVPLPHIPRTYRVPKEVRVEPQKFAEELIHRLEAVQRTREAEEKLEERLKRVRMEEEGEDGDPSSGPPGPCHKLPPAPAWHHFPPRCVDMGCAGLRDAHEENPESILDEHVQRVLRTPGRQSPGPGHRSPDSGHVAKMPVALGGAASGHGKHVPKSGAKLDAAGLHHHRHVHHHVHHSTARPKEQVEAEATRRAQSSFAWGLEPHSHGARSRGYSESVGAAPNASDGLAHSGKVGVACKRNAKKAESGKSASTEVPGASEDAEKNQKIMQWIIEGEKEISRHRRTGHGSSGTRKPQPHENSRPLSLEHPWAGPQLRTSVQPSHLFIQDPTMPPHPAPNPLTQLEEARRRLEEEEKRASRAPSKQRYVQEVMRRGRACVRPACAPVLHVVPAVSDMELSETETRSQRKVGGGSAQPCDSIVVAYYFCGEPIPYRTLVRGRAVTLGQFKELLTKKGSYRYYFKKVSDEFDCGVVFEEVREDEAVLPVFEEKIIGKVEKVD

Molecular target: β-catenin (human (endogenous in A549, NCI-H1299, NCI-H460)) (UniProt P35222)
Assay: co-IP; anti-β-catenin antibody and protein-G sepharose on whole cell lysates of A549, NCI-H1299 and NCI-H460 cells, with or without 10 μM OP-B treatment; lysis buffer 1% Triton X-100, 150 mM NaCl, 50 mM HEPES pH 7.6; overnight at 4 °C; beads washed 4 times with RIPA buffer; Axin detected by western blot

- binding: binds
Substance: Axin1 (from UniProt O15169 1-862)
